At least one structure is not confirmed: it was looked up by name or label, or the drawing left a doubt.
Test system: Ca ion channels of smooth muscle cells
Assay: Intracellular recording of Ca ion channel activation under norepinephline stimulation
Format: cell-based
Conditions: stimulated by 10-μM norepinephline; intracellular recording method

COC(=O)C1=C(C)NC(C)=C(C(=O)OC)C1c1ccccc1[N+](=O)[O-] [nifedipine]
activation of the Ca ion channels of smooth muscle cells: blocked depending on the concentration of nifedipine
